Test results from PubChem BioAssay AID662 (National Center for Advancing Translational Sciences (NCATS), 2007).
The other results are listed elsewhere or left out. The main result of the screen is listed elsewhere. These columns were measured beside it and carry no call. Compounds called inactive in the main read-out are mostly missing here. The note in brackets gives the kind of curve behind each potency; many fits are weak.

Assay: Cell signaling CRE-BLA (Fsk stim)
Conditions: CHO CRE-bla reporter (cAMP response element driving beta-lactamase), forskolin EC10, beta-lactamase ratio; measured here: 460 nm blue channel
Method in brief: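 CRE-bla CHO reporter cells treated with compound titration plus EC10 NKH 477 (water-soluble forskolin), incubated 3 h at 37 °C; CCF4 loading 2 h at room temperature, 460/530 nm emission ratio read, AC50 values derived for positive or negative modulators.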

| Compound | AC50 |
| --- | --- |
| CCCn1c2c(c(O)c(C(=O)Nc3ccc(OC)cc3)c1=O)CCCC2 | 3.16 µM [rising, partial curve] |
| COc1ccc(Cn2nnc3c(=O)[nH]c(C4CCCN(C(=O)c5ccccc5)C4)nc32)cc1 (stereo not drawn) | 10 µM [rising, partial curve] |
| CCc1c(C)nc2ncnn2c1N1CCCC(C(=O)NCc2ccco2)C1 (stereo not drawn) | 10 µM [rising, single point] |
| COc1ccccc1OCC(=O)Nc1ccc(S(=O)(=O)N2CCCCCC2)cc1 | 1 µM [falling, single point] |
| C[C@@]12C(=O)OC(=O)[C@@]1(C)[C@H]1CC[C@@H]2O1 | 0.501 µM [rising, full curve, poor fit] |
| CCc1ccc(N(C(C)=O)C2C=CS(=O)(=O)C2)cc1 (stereo not drawn) | 2 µM [falling, full curve, poor fit] |
| COc1cc(C(=O)NCc2cn3cccc(C)c3n2)cc(OC)c1OC | 7.94 µM [rising, partial curve] |
| c1ccc(-n2nnnc2Sc2n[nH]c(-c3ccncc3)n2)cc1 | 3.98 µM [falling, partial curve] |
| N#Cc1cccc(NC(=O)N2CCC3(CC2)CCN(C(=O)c2csnn2)CC3)c1 | 25.1 µM [rising, single point] |
| COCCn1c(=O)c(-c2ccccc2)nc2cnc(N3CCNCC3)nc21 | 12.6 µM [rising, partial curve] |
| CC1Cc2ccccc2N1C(=O)CN1C(=O)NC(C)(c2ccc3c(c2)OCCO3)C1=O (stereo not drawn) | 0.126 µM [falling, partial curve, poor fit] |
| CC1CCc2c(sc(NC(=O)c3ccc(Cn4cc(Br)cn4)o3)c2C(N)=O)C1 (stereo not drawn) | 12.6 µM [rising, partial curve] |
| Cn1nc(-c2ccc(C(=O)Nc3cccnc3)cc2)c2ccccc2c1=O | 3.98 µM [rising, partial curve] |
| CCn1cc(C(=O)NCc2ccc3c(c2)OCO3)c(=O)c2cc(S(=O)(=O)N3CCOCC3)ccc21 | 10 µM [rising, partial curve] |
| CCC(=O)Nc1c(C#N)c2nc3ccccc3nc2n1-c1ccc(C)cc1 | 2 µM [rising, full curve] |
| CCCCSc1nc(CCC)cc(=O)[nH]1 | 15.8 µM [rising, partial curve] |
| O=c1c(-c2cc(F)cc(F)c2)nc2cnc(Nc3ccccc3)nc2n1C[C@H]1CCCO1 | 20 µM [rising, partial curve] |
| CCOCCCNC(=O)c1[nH]c(C)c(C(C)=O)c1C | 5.01 µM [falling, single point] |
| CC(C)Cn1c(=O)c(C(=O)Nc2ccccc2S(N)(=O)=O)c(O)c2ccccc21 | 25.1 µM [falling, single point] |
| CCCCNC(=O)CCC(=O)Nc1ncc(-c2ccc(C)cc2)n1C | 0.794 µM [falling, full curve, poor fit] |
| C=C(C)COc1ccc(-c2nc(N)ncc2Oc2ccc(OC)cc2)c(O)c1 | 2.51 µM [rising, full curve] |
| CN(C)/C=C1\C(=O)c2ccc(N(C)C)nc2CC1c1ccccc1 (stereo not drawn) | 12.6 µM [rising, partial curve] |
| Cc1c(C(=O)Nc2ccc3oc(-c4cccnc4)nc3c2)oc2ccccc12 | 2.51 µM [rising, full curve] |

| Compound | AC50 |
| --- | --- |
| CCOC(=O)c1ccc2[nH]cc(C(C)=O)c(=O)c2c1 | 0.02 µM [falling, full curve, poor fit] |
| Brc1c(CSc2nnc(-c3ccco3)o2)nc2ccccn12 | 20 µM [rising, single point] |
| CNc1nc(NC)nc(-n2c(C(F)(F)F)nc3ccccc32)n1 | 15.8 µM [rising, single point] |
| CCOC(=O)c1c(C)c(C(=O)Nc2cc(OC)ccc2OC)c(C)n1CC | 6.31 µM [rising, partial curve] |
| COCCNC(=O)c1cc2c(-c3ccc(Cl)cc3)nn(C)c2s1 | 3.98 µM [rising, full curve] |
| CC(=O)Nc1ccc(OC[C@@H](O)CNC(C)C)cc1 | 31.6 µM [falling, single point] |
| COc1ccc(OC)c(NC(=O)CSc2nc3c(c(=O)n(C)c(=O)n3C)n2C)c1 | 2 µM [rising, full curve] |
| COc1ccc(C(=O)CSc2nnc(-c3ccccc3)o2)cc1 | 0.00316 µM [falling, full curve, poor fit] |
| Cc1cc2n(n1)C(c1ccc(O)cc1)Nc1ccccc1-2 (stereo not drawn) | 25.1 µM [rising, single point] |
| CCCCNc1nc(C)nc2c1nc(-c1ccccc1)n2CCN1CCCCC1 | 12.6 µM [rising, single point] |
| CN(CCNC(=O)c1cccc(N2CCCC2=O)c1)Cc1ccccc1 | 0.126 µM [rising, partial curve, poor fit] |
| CCNc1ncc2nc(-c3ccc(Cl)cc3)c(=O)n(-c3ccccc3)c2n1 | 3.98 µM [rising, partial curve] |
| CCOC(=O)CSc1nnnn1-c1cc(OC)ccc1OC | 3.16 µM [falling, single point] |
| CN=C(Nc1cc(C)nn1CCC#N)c1ccc(F)cc1 | 25.1 µM [rising, single point] |
| CCOC(=O)c1cc(-c2ccc(F)cc2)n(CC(=O)Nc2nccs2)c1C | 25.1 µM [falling, single point] |
| CCOC(=O)c1cncc(NC(=O)c2ccccc2)c1 | 25.1 µM [rising, single point] |
| CCc1c(C)c2cc(Cl)c(O)c(CN(C)C)c2oc1=O | 10 µM [rising, partial curve] |
| Cc1cc(=O)cc(C)n1-c1ccccc1N1CCOCC1 | 3.98 µM [falling, single point] |
| Nn1c(SCc2cccc3ccccc23)nnc1-c1ccco1 | 3.98 µM [falling, full curve, poor fit] |
| COc1cc2c(cc1OC)C1=C(C#N)CN(CC(=O)O)CN1CC2 | 5.01 µM [rising, partial curve] |
| C=CCn1c(SCc2nc(N)nc(N3CCCCC3)n2)nnc1-c1ccco1 | 10 µM [rising, single point] |
| CCCN(CCC)c1nc(NC2CCN(C(=O)OCC)CC2)nc(OC)n1 | 25.1 µM [falling, single point] |
| Cc1cc2cc(CN(Cc3ccc4c(c3)OCO4)C(=O)c3ccco3)c(=O)[nH]c2cc1C | 10 µM [rising, partial curve] |

| Compound | AC50 |
| --- | --- |
| O=C1C2C3C=CC(O3)C2C(=O)N1CC(O)c1ccccc1 (stereo not drawn) | 0.00398 µM [falling, full curve, poor fit] |
| CCC(C)Sc1nc2c(c(=O)[nH]c(=O)n2C)n1CC(O)COc1cccc2ccccc12 (stereo not drawn) | 12.6 µM [rising, partial curve] |
| O=c1c(-c2ccc(F)cc2)nc2cnc(N3CCOCC3)nc2n1C1CC1 | 6.31 µM [rising, partial curve] |
| CN(C)S(=O)(=O)N1CCc2ccccc2C1 | 0.00794 µM [falling, full curve, poor fit] |
| Cc1cc(C)c2ccc(N)nc2c1O | 0.00398 µM [falling, full curve, poor fit] |
| Cc1cc2c(C)cc(=O)oc2c2c1NCCC2 | 12.6 µM [rising, partial curve] |
| O=C(c1ccccc1C(=O)N1CCN(c2ccccc2F)CC1)N1CCN(c2ccccc2F)CC1 | 12.6 µM [falling, partial curve] |
| CSc1nc(N2CCOCC2)c2ccccc2n1 | 10 µM [rising, partial curve] |
| CS(=O)(=O)CCC(C(=O)N1CCOCC1)N1C(=O)c2cc(Cl)c(Cl)cc2C1=O (stereo not drawn) | 0.794 µM [rising, full curve] |
| CCn1cc(C(=O)N2CCN(Cc3ccc4c(c3)OCO4)CC2)c2cc(OC)c(OC)cc2c1=O | 10 µM [rising, partial curve] |
| Clc1ccccc1-c1nnc2sc(-c3ccccn3)nn12 | 10 µM [rising, single point] |
| CC(=O)c1sc(NC(=O)c2ccc(Cn3cc(Br)cn3)o2)nc1C | 10 µM [rising, single point] |
| O=C(NCCN1CCN(c2cccc(Cl)c2)CC1)c1cccn2c(=O)c3ccccc3nc12 | 2.51 µM [rising, partial curve] |
| CCC(C)Sc1nc2c(cnn2-c2ccc(C)cc2)c(=O)[nH]1 (stereo not drawn) | 2.51 µM [rising, full curve] |
| COc1ccc(Br)cc1C(=O)Nc1cccc(-c2nnc(-c3ccco3)o2)c1 | 0.2 µM [rising, partial curve] |
| Cn1nnnc1SCC(=O)Nc1nc(-c2ccccc2)c(-c2ccccc2)o1 | 1 µM [falling, full curve, poor fit] |
| CCOc1cccc(C(=O)N(Cc2ccco2)C2CCS(=O)(=O)C2)c1 (stereo not drawn) | 3.98 µM [falling, single point] |
| COC(=O)c1cc(OC)c(OC)cc1NC(=O)CN1CCCCC1 | 31.6 µM [falling, single point] |
| COc1cc(C2C(C#N)=C(C)NC3=C2C(=O)c2ccccc23)cc(OC)c1OC (stereo not drawn) | 3.16 µM [rising, partial curve] |
| COc1ccccc1C(=O)N1CCCC(c2nc(-c3cc(OC)c(OC)c(OC)c3)no2)C1 (stereo not drawn) | 10 µM [rising, partial curve] |
| Cc1cccc(CCNS(=O)(=O)c2cnc[nH]2)c1 | 0.02 µM [falling, full curve, poor fit] |
| Cn1c(Br)nc2c1c(=O)n(CC(O)COc1ccccc1)c(=O)n2C (stereo not drawn) | 20 µM [rising, partial curve] |

Copied from the list.
COC(=O)c1cc(OC)c(OC)cc1NC(=O)CN1CCCCC1 – AC50: 31.6 µM [falling, single point]
COc1ccc(Br)cc1C(=O)Nc1cccc(-c2nnc(-c3ccco3)o2)c1 – AC50: 0.2 µM [rising, partial curve]
CC(=O)c1sc(NC(=O)c2ccc(Cn3cc(Br)cn3)o2)nc1C – AC50: 10 µM [rising, single point]
CCn1cc(C(=O)N2CCN(Cc3ccc4c(c3)OCO4)CC2)c2cc(OC)c(OC)cc2c1=O – AC50: 10 µM [rising, partial curve]
